# Substitutions are numbered along the chain they refer to.
# B1: 18I 31Y 72A (protein, listed as Rattus norvegicus)
# chain: AFDGTWKVDRNENYEKFIEKMGINVVKRKLYAHDNLKLTITQEGNKFTVKESSNFRNIDVVFELGVDFAYSAADGTELTGTWTMEGNKLVGKFKRVDNGKELIAVREISGNELIQTYTYEGVEAKRIFKKE
# modifications: PEPTIDE (1)...(131) wild-type rat intestinal fatty acid binding protein
# B2: 18I 31Y 73G 72A (protein, listed as Rattus norvegicus)
# chain: B1 chain with A73G
# modifications: PEPTIDE (1)...(131) wild-type rat intestinal fatty acid binding protein
# B3: 72T 74S (protein, listed as Rattus norvegicus)
# chain: B1 chain with I18M, Y31G, A72T, D74S
# modifications: PEPTIDE (1)...(131) wild-type rat intestinal fatty acid binding protein
# B4: 14R 18L 31S 73F 117E 72A (protein, listed as Rattus norvegicus)
# chain: B1 chain with Y14R, I18L, Y31S, A73F, Y117E
# modifications: PEPTIDE (1)...(131) wild-type rat intestinal fatty acid binding protein
# B5: 38H 62W 106V 117A 72A (protein, listed as Rattus norvegicus)
# chain: B1 chain with I18M, Y31G, L38H, F62W, R106V, Y117A
# modifications: PEPTIDE (1)...(131) wild-type rat intestinal fatty acid binding protein
# B6: 14R 18L 73L 117D 72A (protein, listed as Rattus norvegicus)
# chain: B1 chain with Y14R, I18L, Y31G, A73L, Y117D
# modifications: PEPTIDE (1)...(131) wild-type rat intestinal fatty acid binding protein
# B7: 72A 74N (protein, listed as Rattus norvegicus)
# chain: B1 chain with I18M, Y31G, D74N
# modifications: PEPTIDE (1)...(131) wild-type rat intestinal fatty acid binding protein
# B8: 14L 18L 31S 73W 117V 72A (protein, listed as Rattus norvegicus)
# chain: B1 chain with Y14L, I18L, Y31S, A73W, Y117V
# modifications: PEPTIDE (1)...(131) wild-type rat intestinal fatty acid binding protein
# B9: 18V 31V 73I 72A (protein, listed as Rattus norvegicus)
# chain: B1 chain with I18V, Y31V, A73I
# modifications: PEPTIDE (1)...(131) wild-type rat intestinal fatty acid binding protein
# B10: 18I 31L 73G 72A (protein, listed as Rattus norvegicus)
# chain: B1 chain with Y31L, A73G
# modifications: PEPTIDE (1)...(131) wild-type rat intestinal fatty acid binding protein
# B11: 14L 18L 73W 117S 72A (protein, listed as Rattus norvegicus)
# chain: B1 chain with Y14L, I18L, Y31G, A73W, Y117S
# modifications: PEPTIDE (1)...(131) wild-type rat intestinal fatty acid binding protein
# B12: 38W 106H 117A 72A (protein, listed as Rattus norvegicus)
# chain: B1 chain with I18M, Y31G, L38W, R106H, Y117A
# modifications: PEPTIDE (1)...(131) wild-type rat intestinal fatty acid binding protein
# B13: 18I 31L 72A (protein, listed as Rattus norvegicus)
# chain: B1 chain with Y31L
# modifications: PEPTIDE (1)...(131) wild-type rat intestinal fatty acid binding protein
# Assay: Baseline fluorescence ratio Ro of probe in absence of analyte
# Conditions: baseline fluorescence ratio of probe
row,Molecule,Ro
1,B1,0.345
2,B2,0.298
3,B3,0.251
4,B4,0.524
5,B5,0.284
6,B6,0.647
7,B7,0.162
8,B8,0.264
9,B9,0.329
10,B10,0.367
11,B11,0.562
12,B12,0.414
13,B13,0.310

# Same assay, conditions: baseline fluorescence ratio of probe, no fatty acid
row,Molecule,Ro
1,B6,0.647
2,B7,0.162
3,B8,0.264
4,B11,0.562
5,B12,0.414
